Measured values published in PubChem BioAssay AID212 (DTP/NCI, 2004).
The list shows only some results of the screen, not a fair sample: it is rich in T/C values a quarter to a half above the control, in often repeated tests (any T/C) and in doses without a T/C. Further doses and runs are listed elsewhere. T/C gives the treated animals as a percentage of the vehicle group. Schedules are NCI's codes, taken here to give the interval after Q, in days (D) or hours (H), and the number of doses after X. Some entries hold several experiments; their values stand side by side, smallest first. Some T/C values carry the count of animals alive at the toxicity check (mostly the fifth day); where none is given, no animal had died by that day. Some entries give survivors of the animals treated and no T/C: the source files T/C as zero there, which appears to mark a toxic dose or a test without result, not a measured value. Survivors were counted at the toxicity check, usually on the fifth day, unless a day is given; later deaths do not show. For survival time, the PubChem record calls one and a half times the control and up active, and a quarter to a half above the control has no call in these data; cut-offs in other NCI protocols can differ.

Test system: BDF1 mice, colon carcinoma 38 sc, T/C %
Assay: NCI In Vivo Anticancer Drug Screen. Data for tumor model Colon Carcinoma 38 (subcutaneous) in B6D2F1 (BDF1) mice
In short: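 Transplantable tumor in mice; compound-treated vs vehicle-dosed controls. Measured survival or tumor size; value = T ÷ C.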

[1] = T/C endpoint: median tumor weight (est.), dose: 12.5 mg/kg/injection, schedule: Q07DX002 (ip), vehicle: saline with Tween-80, evaluated on day 20, higher T/C = larger tumour
[2] = T/C endpoint: median tumor weight (est.), dose: 400.0 mg/kg/injection, schedule: Q07DX002 (ip), vehicle: saline with Tween-80, higher T/C = larger tumour
[3] = T/C endpoint: median tumor weight (est.), dose: 800.0 mg/kg/injection, schedule: Q07DX002 (ip), vehicle: saline with Tween-80, higher T/C = larger tumour
[4] = T/C endpoint: median tumor weight (est.), dose: 200.0 mg/kg/injection, schedule: Q07DX002 (ip), vehicle: saline, higher T/C = larger tumour
[5] = T/C endpoint: median tumor weight (est.), dose: 200.0 mg/kg/injection, schedule: Q07DX002 (ip), vehicle: Klucel (hydroxypropylcellulose) (HPC), higher T/C = larger tumour
[6] = T/C endpoint: median tumor weight (est.), dose: 50.0 mg/kg/injection, schedule: Q07DX002 (ip), vehicle: Klucel (hydroxypropylcellulose) (HPC), evaluated on day 20, higher T/C = larger tumour
[7] = T/C endpoint: median tumor weight (est.), dose: 400.0 mg/kg/injection, schedule: Q07DX002 (ip), vehicle: Klucel (hydroxypropylcellulose) (HPC), higher T/C = larger tumour
[8] = T/C endpoint: median tumor weight (est.), dose: 25.0 mg/kg/injection, schedule: Q07DX002 (ip), vehicle: saline with Tween-80, evaluated on day 20, higher T/C = larger tumour
[9] = T/C endpoint: median tumor weight (est.), dose: 200.0 mg/kg/injection, schedule: Q07DX002 (ip), vehicle: saline with Tween-80, evaluated on day 20, higher T/C = larger tumour

C=CCNc1nc2c(s1)CCc1cc(OC)c(OC)cc1-2
T/C [1]: 128 % of control | survivor count [2]: 3 of 10 on day 20

CO[C@@]12[C@H](COC(N)=O)C3=C(C(=O)C(C)=C(N)C3=O)N1C[C@@H]1N[C@@H]12
survivor count (T/C endpoint: median tumor weight (est.), dose: 8.0 mg/kg/injection, schedule: Q07DX002 (ip), vehicle: saline, higher T/C = larger tumour): 0 of 10 on day 20 and 5 of 10 on day 20 | survivor count (T/C endpoint: median tumor weight (est.), dose: 8.0 mg/kg/injection, schedule: Q07DX002 (ip), vehicle: water, higher T/C = larger tumour): 1 of 10 on day 20 | survivor count (T/C endpoint: median tumor weight (est.), dose: 60.0 mg/kg/injection, schedule: Q07DX002 (oral), vehicle: water, higher T/C = larger tumour): 0 of 10 on day 20

CN(C)N=Nc1cccc(C(N)=O)c1
survivor count (T/C endpoint: median tumor weight (est.), dose: 320.0 mg/kg/injection, schedule: Q07DX002 (ip), vehicle: saline, higher T/C = larger tumour): 2 of 10 on day 20

COc1cccc2c1C(=O)c1c(O)c3c(c(O)c1C2=O)C[C@H](O)C[C@@H]3OC1CC(N)C(O)C(C)O1 (some centres not stated)
T/C (T/C endpoint: median tumor weight (est.), dose: 6.75 mg/kg/injection, schedule: Q07DX002 (ip), vehicle: water, evaluated on day 20, higher T/C = larger tumour): 126 % of control | survivor count (T/C endpoint: median tumor weight (est.), dose: 54.0 mg/kg/injection, schedule: Q07DX002 (ip), vehicle: water, higher T/C = larger tumour): 0 of 10 on day 20 | survivor count (T/C endpoint: median tumor weight (est.), dose: 60.0 mg/kg/injection, schedule: Q07DX002 (ip), vehicle: saline, higher T/C = larger tumour): 3 of 10 on day 20 | survivor count (T/C endpoint: median tumor weight (est.), dose: 108.0 mg/kg/injection, schedule: Q07DX002 (ip), vehicle: water, higher T/C = larger tumour): 0 of 10 on day 20

Nc1ccc2ccc(NS(=O)(=O)N3CCCCC3)cc2c1
survivor count [3]: 6 of 10 on day 20

COC(=Nc1ccccc1)SSC(C)C
T/C [1]: 126 % of control

CC1(C)COCN1COCCOCN1COCC1(C)C
T/C (T/C endpoint: median tumor weight (est.), dose: 200.0 mg/kg/injection, schedule: Q07DX002 (ip), vehicle: saline, evaluated on day 20, higher T/C = larger tumour): 130 % of control | survivor count [4]: 3 of 10 on day 20 | survivor count (T/C endpoint: median tumor weight (est.), dose: 400.0 mg/kg/injection, schedule: Q07DX002 (ip), vehicle: saline, higher T/C = larger tumour): 0 of 10 on day 20

O=CCC(O)C(O)C(O)CO (configuration not stated)
T/C (T/C endpoint: median tumor weight (est.), dose: 1200.0 mg/kg/injection, schedule: Q07DX002 (ip), vehicle: suspension in saline, evaluated on day 20, higher T/C = larger tumour): 129 % of control

Cc1c(N)nc(C(CC(N)=O)NCC(N)C(N)=O)nc1C(=O)NC(C(=O)NC(C)C(O)CC(=O)NC(C(=O)NC(OC1OC(C)C(N)C(O)C1O)C(O)c1nc(-c2nc(C(=O)NCCCC(N)CC(=O)NCCCNCCCCN)cs2)cs1)C(C)O)C(OC1OC(CO)C(O)C(O)C1OC1OC(CO)C(O)C(OC(N)=O)C1O)c1cnc[nH]1 (configuration not stated)
survivor count (T/C endpoint: median tumor weight (est.), dose: 64.0 mg/kg/injection, schedule: Q07DX002 (ip), vehicle: saline, higher T/C = larger tumour): 1 of 10 on day 20

COc1cccc2c1C(=N)c1c(O)c3c(c(O)c1C2=O)C[C@@](O)(C(C)=O)C[C@@H]3OC1CC(N)C(O)C(C)O1 (some centres not stated)
survivor count (T/C endpoint: median tumor weight (est.), dose: 18.0 mg/kg/injection, schedule: Q07DX002 (ip), vehicle: saline, higher T/C = larger tumour): 1 of 10 on day 20 | survivor count (T/C endpoint: median tumor weight (est.), dose: 36.0 mg/kg/injection, schedule: Q07DX002 (ip), vehicle: saline, higher T/C = larger tumour): 0 of 9 on day 20 | survivor count (T/C endpoint: median tumor weight (est.), dose: 72.0 mg/kg/injection, schedule: Q07DX002 (ip), vehicle: saline, higher T/C = larger tumour): 0 of 10 on day 20

CCN(CC)CCOCc1cccc2c(=O)cc(-c3ccccc3)oc12
survivor count [5]: 1 of 10 on day 20

O=C(CC(=O)C(F)(F)F)c1csc2ccccc12
T/C [6]: 127 % of control | survivor count [7]: 0 of 10 on day 20

CN(C)CCN(C)CC(C)(C)C(=O)/C=C/c1ccccc1
survivor count (T/C endpoint: median tumor weight (est.), dose: 250.0 mg/kg/injection, schedule: Q07DX002 (ip), vehicle: saline, higher T/C = larger tumour): 2 of 10 on day 20 | survivor count (T/C endpoint: median tumor weight (est.), dose: 500.0 mg/kg/injection, schedule: Q07DX002 (ip), vehicle: saline, higher T/C = larger tumour): 0 of 10 on day 20

CCN(Cc1ccc(Cl)c(Cl)c1)c1ccc2nc(N)nc(N)c2c1C
T/C (T/C endpoint: median tumor weight (est.), dose: 12.5 mg/kg/injection, schedule: Q07DX002 (ip), vehicle: distilled water + Tween-80, evaluated on day 20, higher T/C = larger tumour): 133 % of control | T/C (T/C endpoint: median tumor weight (est.), dose: 25.0 mg/kg/injection, schedule: Q07DX002 (ip), vehicle: distilled water + Tween-80, evaluated on day 20, higher T/C = larger tumour): 131 and 133 % of control | survivor count (T/C endpoint: median tumor weight (est.), dose: 200.0 mg/kg/injection, schedule: Q07DX002 (ip), vehicle: distilled water + Tween-80, higher T/C = larger tumour): 1 of 10 on day 20

C/C=C/C=C1/OC(C)=C(C(C)=O)C1=O
survivor count [2]: 0 of 10 on day 20 | survivor count [3]: 0 of 10 on day 20 and 2 of 9 on day 20

N=C(N)c1ccc(/C=C/c2ccc(C(=N)N)cc2O)cc1
T/C (T/C endpoint: median tumor weight (est.), dose: 50.0 mg/kg/injection, schedule: Q07DX002 (ip), vehicle: water, evaluated on day 20, higher T/C = larger tumour): 141 % of control

CCCN1COC(OCC)C(C)(C)C1 (configuration not stated)
T/C [8]: 130 % of control | T/C [9]: 138 % of control | survivor count [2]: 0 of 9 on day 20 and 4 of 10 on day 20 | survivor count [3]: 0 of 10 on day 20

Nc1cc2[nH]cnc2c(=O)[nH]1
T/C (T/C endpoint: median tumor weight (est.), dose: 50.0 mg/kg/injection, schedule: Q07DX002 (ip), vehicle: saline, evaluated on day 20, higher T/C = larger tumour): 131 % of control

COCCCNC1=C(C#N)C(=O)NC(c2cccc([N+](=O)[O-])c2)S1 (configuration not stated)
T/C [1]: 128 % of control | T/C [8]: 130 % of control | T/C (T/C endpoint: median tumor weight (est.), dose: 50.0 mg/kg/injection, schedule: Q07DX002 (ip), vehicle: saline with Tween-80, evaluated on day 20, higher T/C = larger tumour): 135 % of control | T/C [9]: 134 and 144 % of control

NC(Cc1ccc(N(CCCl)CCCl)cc1)C(=O)O (configuration not stated)
survivor count (T/C endpoint: median tumor weight (est.), dose: 16.0 mg/kg/injection, schedule: Q07DX002 (ip), vehicle: water, higher T/C = larger tumour): 5 of 10 on day 20 | survivor count (T/C endpoint: median tumor weight (est.), dose: 32.0 mg/kg/injection, schedule: Q07DX002 (ip), vehicle: Klucel (hydroxypropylcellulose) (HPC), higher T/C = larger tumour): 0 of 10 on day 20 | survivor count (T/C endpoint: median tumor weight (est.), dose: 32.0 mg/kg/injection, schedule: Q07DX002 (ip), vehicle: water, higher T/C = larger tumour): 1 of 10 on day 20

[I][Hg][CH2]C1OCCOC1[CH2][Hg][I] (configuration not stated)
survivor count (T/C endpoint: median tumor weight (est.), dose: 50.0 mg/kg/injection, schedule: Q07DX002 (ip), vehicle: Klucel (hydroxypropylcellulose) (HPC), higher T/C = larger tumour): 4 of 10 on day 20 | survivor count (T/C endpoint: median tumor weight (est.), dose: 100.0 mg/kg/injection, schedule: Q07DX002 (ip), vehicle: Klucel (hydroxypropylcellulose) (HPC), higher T/C = larger tumour): 0 of 10 on day 20 | survivor count [5]: 0 of 10 on day 20 | survivor count [7]: 0 of 10 on day 20

N[C@H](C(=O)O)[C@@H]1CC(Cl)=NO1
T/C (T/C endpoint: median survival time, dose: 120.0 mg/kg/injection, schedule: Q04DX002 (ip), vehicle: suspension in saline, higher T/C = longer survival): 133 % of control [8 of 10 alive on day 100] | T/C (T/C endpoint: median tumor weight (est.), dose: 4.0 mg/kg/injection, schedule: Q07DX003 (ip), vehicle: saline, evaluated on day 20, higher T/C = larger tumour): 125 % of control | T/C (T/C endpoint: median tumor weight (est.), dose: 8.0 mg/kg/injection, schedule: Q07DX003 (ip), vehicle: saline, evaluated on day 20, higher T/C = larger tumour): 141 % of control | T/C (T/C endpoint: median tumor weight (est.), dose: 16.0 mg/kg/injection, schedule: Q07DX003 (ip), vehicle: saline, evaluated on day 20, higher T/C = larger tumour): 134 % of control | T/C (T/C endpoint: median tumor weight (est.), dose: 32.0 mg/kg/injection, schedule: Q07DX003 (ip), vehicle: saline, evaluated on day 20, higher T/C = larger tumour): 141 % of control

c1cc(-c2cc3ccc(C4=NCCN4)cc3[nH]2)ccc1C1=NCCN1
survivor count (T/C endpoint: median tumor weight (est.), dose: 100.0 mg/kg/injection, schedule: Q07DX002 (ip), vehicle: saline, higher T/C = larger tumour): 1 of 10 on day 20 | survivor count (T/C endpoint: median tumor weight (est.), dose: 100.0 mg/kg/injection, schedule: Q07DX002 (ip), vehicle: suspension in saline, higher T/C = larger tumour): 1 of 10 on day 20 | survivor count [4]: 0 of 10 on day 20 | survivor count (T/C endpoint: median tumor weight (est.), dose: 200.0 mg/kg/injection, schedule: Q07DX002 (ip), vehicle: suspension in saline, higher T/C = larger tumour): 1 of 10 on day 20

CN(C)N=Nc1cn[nH]c1C(N)=O
T/C (T/C endpoint: median tumor weight (est.), dose: 25.0 mg/kg/injection, schedule: Q07DX002 (ip), vehicle: Klucel (hydroxypropylcellulose) (HPC), evaluated on day 20, higher T/C = larger tumour): 98, 127, 158 % of control | T/C [6]: 46, 145, 184 % of control | T/C (T/C endpoint: median tumor weight (est.), dose: 100.0 mg/kg/injection, schedule: Q07DX002 (ip), vehicle: Klucel (hydroxypropylcellulose) (HPC), evaluated on day 20, higher T/C = larger tumour): 40, 95, 219 % of control [9 of 10 alive on day 20] | T/C (T/C endpoint: median tumor weight (est.), dose: 200.0 mg/kg/injection, schedule: Q07DX002 (ip), vehicle: Klucel (hydroxypropylcellulose) (HPC), evaluated on day 20, higher T/C = larger tumour): 25 [9 of 10 alive on day 20], 57, 84 % of control | survivor count [7]: 4 of 10 on day 20 and 5 of 10 on day 20 | survivor count (T/C endpoint: median tumor weight (est.), dose: 800.0 mg/kg/injection, schedule: Q07DX002 (ip), vehicle: Klucel (hydroxypropylcellulose) (HPC), higher T/C = larger tumour): 0 of 10 on day 20
